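Human melanoma cells were exposed to a pair of drugs for 72 h in 1,536-well plates and read by automated microscopy after fixing and staining. Values are the share of nuclei positive for cleaved PARP as a percentage of the same share in the DMSO control: 100 is the control level, higher means more apoptosis. Every drug was used at one fixed concentration, the higher of two screened. No replicate spread is given; individual values may be noisy. The marker varies much from line to line, for technical or biological reasons.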
Only some of the drugs and lines screened are listed, without regard to their results.
An entry leaves out what has no value listed here.

All values are for the listed drug together with GW441756 (2 µM): Cn1cc(/C=C2\C(=O)Nc3cccnc32)c2ccccc21

With O=S(=O)(c1ccccc1)N(CC(F)(F)F)c1ccc(C(O)(C(F)(F)F)C(F)(F)F)cc1 at 7 µM the screen read A2058: 93.1; IST-MEL1: 57.8; LB2518-MEL: 40.1; UACC-257: 18.8; RPMI-7951: 621; WM115: 133; SK-MEL-2: 36.6; A375: 32.7; UACC-62: 147; COLO 800: 178; MZ2-MEL: 27.0; WM3526: 96.2; SK-MEL-30: 118; 501mel: 66.3; RVH-421: 51.0; SK-MEL-28: 21.4; IPC-298: 61.3; COLO 829: 110; WM451Lu: 101; MeWo: 71.0; MEL-HO: 99.5; A101D: 140; WM3619: 249; LOX IMVI: 65.0; C32: 89.3; WM1745: 136; SK-MEL-5: 52.5; WM1716: 46.7; COLO 792: 101; G-361: 180.
With C=C(c1ccc(C(=O)O)cc1)c1cc2c(cc1C)C(C)(C)CCC2(C)C at 10 µM the screen read A2058: 51.3; IST-MEL1: 154; LB2518-MEL: 30.2; UACC-257: 25.6; RPMI-7951: 46.8; WM115: 59.9; SK-MEL-2: 40.5; A375: 106; UACC-62: 319; COLO 800: 90.6; MZ2-MEL: 488; WM3526: 184; SK-MEL-30: 55.2; 501mel: 93.7; RVH-421: 227; SK-MEL-28: 98.9; IPC-298: 49.1; COLO 829: 110; WM451Lu: 174; MeWo: 95.0; MEL-HO: 59.6; A101D: 128; WM3619: 98.1; LOX IMVI: 67.6; C32: 57.0; SK-MEL-5: 54.5; WM1716: 357; COLO 792: 154; G-361: 65.2.
With Nc1ncn([C@H]2C[C@H](O)[C@@H](CO)O2)c(=O)n1 at 0.5 µM the screen read A2058: 123; IST-MEL1: 166; LB2518-MEL: 77.0; UACC-257: 64.5; RPMI-7951: 64.2; WM115: 61.9; SK-MEL-2: 232; A375: 133; UACC-62: 276; COLO 800: 113; MZ2-MEL: 155; WM3526: 98.4; SK-MEL-30: 98.5; 501mel: 70.3; RVH-421: 442; SK-MEL-28: 46.4; IPC-298: 228; COLO 829: 206; WM451Lu: 171; MeWo: 205; MEL-HO: 52.7; A101D: 159; WM3619: 98.8; LOX IMVI: 29.6; C32: 72.5; SK-MEL-5: 124; WM1716: 139; COLO 792: 49.4; G-361: 122.
With OCCn1cc(-c2cnc3nnn(Cc4ccc5ncccc5c4)c3n2)cn1 at 5 µM the screen read A2058: 111; IST-MEL1: 104; LB2518-MEL: 61.6; UACC-257: 35.4; RPMI-7951: 57.0; WM115: 66.4; SK-MEL-2: 28.7; A375: 88.4; UACC-62: 102; COLO 800: 126; MZ2-MEL: 28.8; WM3526: 100; SK-MEL-30: 77.6; 501mel: 78.8; RVH-421: 73.2; SK-MEL-28: 78.7; IPC-298: 166; COLO 829: 51.8; WM451Lu: 24.8; MeWo: 39.0; MEL-HO: 93.6; A101D: 139; WM3619: 102; LOX IMVI: 96.3; C32: 82.9; WM1745: 334; SK-MEL-5: 189; WM1716: 66.3; COLO 792: 79.9; G-361: 45.6.
With CC(C)CCN1c2nc(Nc3cc(F)c(O)c(F)c3)ncc2N(C)C(=O)C1C (stereo not drawn) at 1 µM the screen read A2058: 208; IST-MEL1: 97.4; LB2518-MEL: 85.1; UACC-257: 28.1; RPMI-7951: 87.6; WM115: 94.1; SK-MEL-2: 57.2; A375: 77.6; UACC-62: 222; COLO 800: 168; MZ2-MEL: 26.8; WM3526: 86.6; SK-MEL-30: 72.4; 501mel: 166; RVH-421: 55.1; SK-MEL-28: 131; IPC-298: 123; COLO 829: 48.9; WM451Lu: 72.5; MeWo: 145; MEL-HO: 58.3; A101D: 456; WM3619: 128; LOX IMVI: 77.4; C32: 81.7; WM1745: 117; SK-MEL-5: 70.5; WM1716: 63.2; COLO 792: 102; G-361: 109.
With Oc1nc(-c2ccc(C(F)(F)F)cc2)nc2c1CSCC2 at 10 µM the screen read A2058: 156; IST-MEL1: 177; LB2518-MEL: 82.8; UACC-257: 54.9; RPMI-7951: 82.9; WM115: 236; SK-MEL-2: 127; A375: 12.1; UACC-62: 79.1; COLO 800: 210; MZ2-MEL: 41.0; WM3526: 93.3; SK-MEL-30: 121; 501mel: 79.8; RVH-421: 51.4; SK-MEL-28: 140; IPC-298: 50.0; COLO 829: 79.5; WM451Lu: 113; MeWo: 115; MEL-HO: 103; A101D: 130; WM3619: 135; LOX IMVI: 107; C32: 190; WM1745: 148; SK-MEL-5: 176; WM1716: 125; COLO 792: 86.2; G-361: 30.8.

Data from the primary screen of doi:10.1371/journal.pone.0140310, rounded.